From ChEMBL document CHEMBL3988442, “University of Dundee, Small-Polar-MMV Screening Library” (2021).

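Assay of Toxoplasma gondii numbers, read through their beta-galactosidase reporter with a colour substrate. Tested at 50 µM. The record gives no direction; the compounds picked for IC50 retests had high values, so higher reads as fewer parasites. Size under these conditions: about 18,000 compounds, about 170 of them at 50% or above in at least one test.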

Values are the deposited “Percent Effect”, in %. How 0% and 100% were set is not recorded. Most values in the screen are low, and negative values occur. The compounds are a random part of those screened.

structure,effect
O=C(NC1COc2ccccc21)c1ccc(=O)[nH]c1 (centres undefined),-5.023
C[C@]1(O)CCN(Cc2cc3ccccc3o2)C[C@@H]1O,-3.134
CC(C)S(=O)(=O)CC(=O)N1CCc2ccc(Br)cc21,-1.202
c1cncc(-c2ccnn2CN2CCSCC2)c1,-28.47
CN(Cc1ccc(F)cc1Cl)C(=O)C1(N)CCCC1,12.13
Cc1cccc(C(=O)NCCN(C)C)c1,-2.247
CNC(=O)CCC(C)(C)NC(=O)c1ccc(COC)s1,0.8814
CC(=O)N1CCCN(C(=O)C2CCN(C)C(=O)C2)CC1 (centres undefined),-9.03
Cc1ccc(Cl)c(NC(=O)NCCNC(=O)N(C)C)c1,20.59
CCc1ccc(CN(C)C(=O)c2cccn2C)nc1,1.388
O=C(CC1NCCNC1=O)OCc1ccccc1 (centres undefined),5.977
CSCC(C)(O)CNc1nnnn1-c1ccccc1 (centres undefined),-4.509
NS(=O)(=O)c1cc(Cl)cc(CO)c1,4.246
CC(C)c1nc(C2CCCN2)no1 (centres undefined),-3.825
O=C(NCCn1ccnc1)c1cc2c([nH]c1=O)CCC2,37.4
N#Cc1ccnc(OCC2CC2)c1,-7.055
CCN(CC)C(C(N)=O)c1ccccc1 (centres undefined),4.628
CSCCC(NS(=O)(=O)c1ccc(C)cc1)C(N)=O (centres undefined),-22.37
NCCCn1nc2ccccn2c1=O,7.053
Cc1cc(C)n(C(C)C(=O)NCCS(=O)(=O)N(C)C)n1 (centres undefined),-16.6
Cc1cc(NC(=O)NCC2CSCCS2)on1 (centres undefined),-4.584
COC(=O)C1CCCN1CCN1CCCC1=O (centres undefined),-8.254
COc1c(CNC(=O)c2cccs2)c(C)nn1C,16.93
COCCn1cnnc1CN(C)Cc1nccs1,-2.674
CC(C)N1CCC2(CC1)Nc1ccccc1NC2=O,18.26
Cc1c([C@@H]2OCC[C@H]2N)cnn1C,6.382
CN(Cc1ccoc1)C(=O)CN(C)C1CCNCC1,13.59
CN(C)S(=O)(=O)NCc1ccc(Cn2ccnc2)cc1,2.871
Cc1cccc(C(=O)NCC(=O)NC(C#N)C2CC2)c1 (centres undefined),1.714
Cc1c[nH]c(C(=O)N2CCCC2c2ccccn2)n1 (centres undefined),-3.826
CCNC(=O)CCc1ccccc1F,6.341
O=C(Nc1ncccc1F)C1CC=CC1,-2.979
Cc1ccc(S(=O)(=O)NCCN)cc1Br,-18.38
CCN1C(=O)C[C@H](CN)[C@H]1c1ccncc1,4.591
CNCc1ccc(N(C)C)nc1,-20.16
CN(C)C(=O)Nc1ccc(N2CCOCC2)nc1,-18.28
COc1ccccc1NC(=O)NCCN(C)C,1.036
CC(C)Oc1c(Cl)cccc1NCC(=O)N(C)C,4.388
COC(=O)CC1CN(CCN2CCCCC2)CCO1 (centres undefined),17.36
CCC(CO)(CO)NCC(O)COCc1ccco1 (centres undefined),5.621
CCN(CC)C(=O)CN(C)S(=O)(=O)N1CCOCC1,-0.9615
CCC(=O)N1CCCC(NS(C)(=O)=O)C1 (centres undefined),0.4555
CSc1nc(C)c2c(c1C(N)=O)CCCC2,-13.55
N[C@H]1CN(C(=O)Cn2cc(Cl)cn2)C[C@@H]1C1CC1,-17.1
O=C(c1cc(Cl)c[nH]1)N1CCC(N2CCSCC2)CC1,-6.476
Cc1cccc2c1C(=O)NCCN2,-3.612
O=C(c1cccnc1N1CCCCC1)N1CCCC1,-0.6003
CCCOc1cccc(NCCCS(C)(=O)=O)c1,-2.766
Cc1cc(C)cc(NC(=O)CN2CCC(O)CC2)c1,5.146
CCC(CO)NC(=O)C1(Cc2ccccc2)CC1 (centres undefined),-4.79
COc1ncc(C)cc1NC(=O)CC1CCCO1 (centres undefined),-5.466
Cc1ccc2c(c1)N(S(=O)(=O)N1CCCC1)CC(C)O2 (centres undefined),10.78
Cc1nonc1CC(=O)NC(C)c1nc(C2CC2)no1 (centres undefined),12.68
Cc1nnc(C(C)N2CCn3ccnc3C2)o1 (centres undefined),3.712
Cc1ccc(CC(=O)N2CCC3(CC2)OCCO3)cn1,-24.37
COC(C)C(=O)NCc1ccc(C(C)=O)c(C)n1 (centres undefined),-5.024
COCc1nc(C(=O)NC2CCC(O)CC2)cs1 (centres undefined),-7.992
C=C(C)COc1ccc(C(=O)NCC[C@@H](C)CO)cc1,6.323
CCCS(=O)(=O)NCc1cccc(OCCN(C)C)c1,8.09
CCC[C@H]1CN(C(=O)c2cnc(C)cn2)C[C@@H]1N,5.848
Cc1cccc(S(=O)(=O)NCCN)c1Br,-3.47
COCC1CCN(C(=O)CCc2cscn2)CC1,4.013
CCCn1ccnc1CCCNC,-8.506
O=C1COc2cc(Br)cnc2N1,-11.12
COCCN(CC(F)F)C(=O)NCc1ccco1,-4.627
CC(Cn1cccn1)C(=O)N(C)CCc1cnn(C)c1 (centres undefined),-4.204
CC(C)(C)OC(=O)N1CCN(C2CCC(N)CC2)CC1 (centres undefined),-6.47
CC(C)c1nnc(CN2CCCC(O)(CO)CC2)o1 (centres undefined),-11.98
COc1ccc(C(C)NCC(C)(C)C(N)=O)c(F)c1 (centres undefined),5.268
C1CN(C2CCN(c3nnc(C4CC4)o3)CC2)CCS1,-2.345
COc1ccc(C(N)c2ccco2)cc1 (centres undefined),6.627
CCc1nnc(CNCC2CCN(CC(C)O)CC2)o1 (centres undefined),-2.12
O=S(=O)(NCCN1CCNCC1)N1CCOCC1,3.495
O=C(C1CCNCC1)N(Cc1ccccc1)C1CC1,35.4
CC(C1CCN(c2nc(CO)cs2)CC1)N(C)C (centres undefined),-4.018
c1ccc(CNC2CCCNCC2)cc1 (centres undefined),-0.7032
COCCOCCCNC(=O)C(C)(C)n1cc(Br)cn1,8.17
O=C(NCC1CC1)C1CC12CCNCC2 (centres undefined),-6.927
CN(C)c1cccc(CN)n1,17.29
CCN(CCO)C[C@@H]1CN(C(=O)C2(C)CC2)C[C@@H]1CO,-14.31

The last 10 entries again:

| structure | effect |
|---|---|
| `COc1ccc(C(N)c2ccco2)cc1` (centres undefined) | 6.627 |
| `CCc1nnc(CNCC2CCN(CC(C)O)CC2)o1` (centres undefined) | -2.12 |
| `O=S(=O)(NCCN1CCNCC1)N1CCOCC1` | 3.495 |
| `O=C(C1CCNCC1)N(Cc1ccccc1)C1CC1` | 35.4 |
| `CC(C1CCN(c2nc(CO)cs2)CC1)N(C)C` (centres undefined) | -4.018 |
| `c1ccc(CNC2CCCNCC2)cc1` (centres undefined) | -0.7032 |
| `COCCOCCCNC(=O)C(C)(C)n1cc(Br)cn1` | 8.17 |
| `O=C(NCC1CC1)C1CC12CCNCC2` (centres undefined) | -6.927 |
| `CN(C)c1cccc(CN)n1` | 17.29 |
| `CCN(CCO)C[C@@H]1CN(C(=O)C2(C)CC2)C[C@@H]1CO` | -14.31 |